Common to all, as to conditions: yeast three-hybrid, YBZ-1, SC-Leu-His + 0.5 mM 3-AT, 4 days
Assay [1] concerns the target T1, PUM1 PUF domain R5-PHQ R6-SWD C1007P + R1008H + N1043S + Y1044W + Q1047D (Homo sapiens) (UniProt Q14671).
T1 sequence: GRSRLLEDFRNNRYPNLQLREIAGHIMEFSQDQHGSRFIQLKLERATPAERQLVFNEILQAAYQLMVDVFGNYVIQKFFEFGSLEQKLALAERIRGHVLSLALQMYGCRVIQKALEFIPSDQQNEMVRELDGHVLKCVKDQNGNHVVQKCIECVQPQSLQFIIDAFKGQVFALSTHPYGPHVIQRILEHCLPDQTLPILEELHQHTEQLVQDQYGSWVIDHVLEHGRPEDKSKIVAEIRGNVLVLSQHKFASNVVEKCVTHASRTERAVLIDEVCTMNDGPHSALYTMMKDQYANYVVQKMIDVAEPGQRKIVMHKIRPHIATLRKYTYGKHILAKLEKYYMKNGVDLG

The target in assay [2] is T2, PUM1 PUF domain R6-RFV N1043R + Y1044F + Q1047V (Homo sapiens) (UniProt Q14671).
T2 sequence: T1 sequence with P180C, H181R, S216R, W217F, D220V

The target of assay [3] is T3, PUM1 PUF domain R6-RWV N1043R + Y1044W + Q1047V (Homo sapiens) (UniProt Q14671).
T3 sequence: T1 sequence with P180C, H181R, S216R, D220V

For assay [4], the target named is T4, PUM1 PUF domain R6-WWA N1043W + Y1044W + Q1047A (Homo sapiens) (UniProt Q14671).
T4 sequence: T1 sequence with P180C, H181R, S216W, D220A

The target in assay [5] is T5, PUM1 PUF domain R1-FAR S863F + R864A + Q867R (UniProt Q14671).
T5 sequence: T1 sequence with S36F, R37A, Q40R, P180C, H181R, S216N, W217Y, D220Q

Assay [6] has as its target T6, PUM1 PUF domain R1-FGR S863F + R864G + Q867R (UniProt Q14671).
T6 sequence: T1 sequence with S36F, R37G, Q40R, P180C, H181R, S216N, W217Y, D220Q

In assay [7] the target is T7, PUM1 PUF domain R1-GRS S863G + Q867S (UniProt Q14671).
T7 sequence: T1 sequence with S36G, Q40S, P180C, H181R, S216N, W217Y, D220Q

The target of assay [8] is T8, PUM1 PUF domain R1-GWR S863G + R864W + Q867R (UniProt Q14671).
T8 sequence: T1 sequence with S36G, R37W, Q40R, P180C, H181R, S216N, W217Y, D220Q

For assay [9], the target named is T9, PUM1 PUF domain R1-IWR S863I + R864W + Q867R (UniProt Q14671).
T9 sequence: T1 sequence with S36I, R37W, Q40R, P180C, H181R, S216N, W217Y, D220Q

In assay [10] the target is T10, PUM1 PUF domain R1-KMR S863K + R864M + Q867R (UniProt Q14671).
T10 sequence: T1 sequence with S36K, R37M, Q40R, P180C, H181R, S216N, W217Y, D220Q

Assay [11] addresses T11, PUM1 PUF domain R1-KSR S863K + R864S + Q867R (UniProt Q14671).
T11 sequence: T1 sequence with S36K, R37S, Q40R, P180C, H181R, S216N, W217Y, D220Q

The target in assay [12] is T12, PUM1 PUF domain R1-QRR S863Q + Q867R (UniProt Q14671).
T12 sequence: T1 sequence with S36Q, Q40R, P180C, H181R, S216N, W217Y, D220Q

For assay [13], the target named is T13, PUM1 PUF domain R1-QVK S863Q + R864V + Q867K (UniProt Q14671).
T13 sequence: T1 sequence with S36Q, R37V, Q40K, P180C, H181R, S216N, W217Y, D220Q

In assay [14] the target is T14, PUM1 PUF domain R1-QWR S863Q + R864W + Q867R (UniProt Q14671).
T14 sequence: T1 sequence with S36Q, R37W, Q40R, P180C, H181R, S216N, W217Y, D220Q

The target in assay [15] is T15, PUM1 PUF domain R1-RCL S863R + R864C + Q867L (UniProt Q14671).
T15 sequence: T1 sequence with S36R, R37C, Q40L, P180C, H181R, S216N, W217Y, D220Q

For assay [16], the target named is T16, PUM1 PUF domain R1-RRC S863R + Q867C (UniProt Q14671).
T16 sequence: T1 sequence with S36R, Q40C, P180C, H181R, S216N, W217Y, D220Q

In assay [17] the target is T17, PUM1 PUF domain R1-TGR S863T + R864G + Q867R (UniProt Q14671).
T17 sequence: T1 sequence with S36T, R37G, Q40R, P180C, H181R, S216N, W217Y, D220Q

Assay [18] has as its target T18, PUM1 PUF domain R1-TLR S863T + R864L + Q867R (UniProt Q14671).
T18 sequence: T1 sequence with S36T, R37L, Q40R, P180C, H181R, S216N, W217Y, D220Q

Assay [19] concerns the target T19, PUM1 PUF domain R1-TSR S863T + R864S + Q867R (UniProt Q14671).
T19 sequence: T1 sequence with S36T, R37S, Q40R, P180C, H181R, S216N, W217Y, D220Q

For assay [20], the target named is T20, PUM1 PUF domain R1-TVR S863T + R864V + Q867R (UniProt Q14671).
T20 sequence: T1 sequence with S36T, R37V, Q40R, P180C, H181R, S216N, W217Y, D220Q

Drawing on PMC8384837, this text covers binding signal (log2 enrichment (interaction score)) for two sequences.

Where a chain is given by its changes, count along the chain named. This is one part of the list. For some assays here: At the low end of the ranking, values are background and their order means little.

Consider “GGCUAGAACUAGUGGAUCCCCCGGCGCCCGGCGGCUCGAGCCCGGGUAAGUGGAAAUAGUCUGCAUGCCGCCGGGCGCCAUGCCUGCAGGUCGACUCUAGAAAACAUG”, for which the binding signal (log2 enrichment (interaction score)) in assay [1] is 6.12; in assay [2], -5.36; in assay [3] it was -5.44; in [4], -5.5.
“GGCUAGAACUAGUGGAUCCCCCGGCGCCCGGCGGCUCGAGCCCGGGUAAGUGUAAAUGGUCUGCAUGCCGCCGGGCGCCAUGCCUGCAGGUCGACUCUAGAAAACAUG”: the binding signal (log2 enrichment (interaction score)) in assay [5] is -3.67; in assay [6], -3.04; in assay [7] it was -4.25; in [8], -4.24; in assay [9], -2.95; in assay [10] it was -2.3. For the same sequence, the binding signal (log2 enrichment (interaction score)) in [11] was -2.37; in assay [12], -2.7; in [13], -2.43; in assay [14] it was -2.89; in assay [15] it was -3.05; in assay [16], -3.18. Further, the binding signal (log2 enrichment (interaction score)) in assay [17] was -2.2; in assay [18], -3.21; in [19] it was -3.45; in assay [20], -2.43.
